{"sequences": {"note": "Protein sequences, listed by entry. Tags and fused reporters are not part of them. Lines headed by an entry give the natural chain unless they say otherwise; changes in a name come on top.", "UniProt P50406, whole entry, looked up": "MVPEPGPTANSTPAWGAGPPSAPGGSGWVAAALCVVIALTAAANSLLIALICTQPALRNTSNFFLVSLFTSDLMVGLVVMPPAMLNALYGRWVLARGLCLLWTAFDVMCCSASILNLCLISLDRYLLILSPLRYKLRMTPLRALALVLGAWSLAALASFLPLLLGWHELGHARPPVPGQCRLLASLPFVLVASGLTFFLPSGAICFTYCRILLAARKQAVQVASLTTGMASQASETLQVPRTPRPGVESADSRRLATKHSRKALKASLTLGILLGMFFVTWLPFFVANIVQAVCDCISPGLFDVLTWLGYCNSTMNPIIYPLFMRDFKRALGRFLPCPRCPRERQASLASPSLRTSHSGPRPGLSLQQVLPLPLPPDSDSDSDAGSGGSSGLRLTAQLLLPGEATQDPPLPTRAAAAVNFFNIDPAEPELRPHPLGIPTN", "UniProt P30989, whole entry, looked up": "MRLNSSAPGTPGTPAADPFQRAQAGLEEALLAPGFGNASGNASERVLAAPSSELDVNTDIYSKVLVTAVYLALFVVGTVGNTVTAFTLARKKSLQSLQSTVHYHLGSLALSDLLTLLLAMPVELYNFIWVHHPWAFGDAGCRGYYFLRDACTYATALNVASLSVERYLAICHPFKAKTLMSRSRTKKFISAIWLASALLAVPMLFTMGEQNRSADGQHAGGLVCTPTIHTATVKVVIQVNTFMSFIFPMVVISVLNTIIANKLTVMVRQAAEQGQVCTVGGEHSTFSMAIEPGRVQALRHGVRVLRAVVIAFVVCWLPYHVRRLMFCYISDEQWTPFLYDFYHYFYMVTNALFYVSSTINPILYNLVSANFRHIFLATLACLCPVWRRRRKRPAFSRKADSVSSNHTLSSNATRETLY", "UniProt Q13464": "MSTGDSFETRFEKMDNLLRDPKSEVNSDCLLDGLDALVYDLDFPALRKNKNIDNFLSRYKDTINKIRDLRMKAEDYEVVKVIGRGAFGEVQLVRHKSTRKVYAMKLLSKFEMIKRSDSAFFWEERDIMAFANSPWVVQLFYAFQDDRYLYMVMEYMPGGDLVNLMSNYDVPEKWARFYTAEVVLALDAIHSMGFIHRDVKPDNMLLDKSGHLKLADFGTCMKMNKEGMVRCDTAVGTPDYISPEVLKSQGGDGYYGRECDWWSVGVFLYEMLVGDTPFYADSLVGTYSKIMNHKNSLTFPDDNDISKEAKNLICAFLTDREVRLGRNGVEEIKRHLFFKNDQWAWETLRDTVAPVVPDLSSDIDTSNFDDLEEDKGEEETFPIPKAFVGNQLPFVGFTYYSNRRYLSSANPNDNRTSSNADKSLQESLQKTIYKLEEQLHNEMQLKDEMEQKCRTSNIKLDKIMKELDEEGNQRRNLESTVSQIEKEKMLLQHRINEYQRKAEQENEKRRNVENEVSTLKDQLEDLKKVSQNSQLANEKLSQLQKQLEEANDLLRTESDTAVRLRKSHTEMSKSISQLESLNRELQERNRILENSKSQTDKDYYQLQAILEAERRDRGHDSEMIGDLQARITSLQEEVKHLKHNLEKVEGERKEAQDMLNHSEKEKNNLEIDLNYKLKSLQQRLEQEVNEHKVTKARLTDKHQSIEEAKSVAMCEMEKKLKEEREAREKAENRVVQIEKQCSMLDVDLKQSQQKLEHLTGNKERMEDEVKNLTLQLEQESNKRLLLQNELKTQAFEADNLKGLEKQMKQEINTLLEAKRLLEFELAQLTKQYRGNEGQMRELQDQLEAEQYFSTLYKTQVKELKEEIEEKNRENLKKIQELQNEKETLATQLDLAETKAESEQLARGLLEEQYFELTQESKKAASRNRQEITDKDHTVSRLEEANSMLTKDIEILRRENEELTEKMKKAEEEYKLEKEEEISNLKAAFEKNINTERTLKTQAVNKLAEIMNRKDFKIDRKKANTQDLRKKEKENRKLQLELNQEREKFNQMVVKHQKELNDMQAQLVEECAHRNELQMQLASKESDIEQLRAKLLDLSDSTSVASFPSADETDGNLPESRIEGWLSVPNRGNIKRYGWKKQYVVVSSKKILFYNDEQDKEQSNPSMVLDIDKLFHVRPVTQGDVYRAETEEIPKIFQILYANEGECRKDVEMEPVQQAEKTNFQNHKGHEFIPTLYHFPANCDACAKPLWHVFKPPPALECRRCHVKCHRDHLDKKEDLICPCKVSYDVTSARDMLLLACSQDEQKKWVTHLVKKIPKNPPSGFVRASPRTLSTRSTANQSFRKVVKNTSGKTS", "UniProt P10275": "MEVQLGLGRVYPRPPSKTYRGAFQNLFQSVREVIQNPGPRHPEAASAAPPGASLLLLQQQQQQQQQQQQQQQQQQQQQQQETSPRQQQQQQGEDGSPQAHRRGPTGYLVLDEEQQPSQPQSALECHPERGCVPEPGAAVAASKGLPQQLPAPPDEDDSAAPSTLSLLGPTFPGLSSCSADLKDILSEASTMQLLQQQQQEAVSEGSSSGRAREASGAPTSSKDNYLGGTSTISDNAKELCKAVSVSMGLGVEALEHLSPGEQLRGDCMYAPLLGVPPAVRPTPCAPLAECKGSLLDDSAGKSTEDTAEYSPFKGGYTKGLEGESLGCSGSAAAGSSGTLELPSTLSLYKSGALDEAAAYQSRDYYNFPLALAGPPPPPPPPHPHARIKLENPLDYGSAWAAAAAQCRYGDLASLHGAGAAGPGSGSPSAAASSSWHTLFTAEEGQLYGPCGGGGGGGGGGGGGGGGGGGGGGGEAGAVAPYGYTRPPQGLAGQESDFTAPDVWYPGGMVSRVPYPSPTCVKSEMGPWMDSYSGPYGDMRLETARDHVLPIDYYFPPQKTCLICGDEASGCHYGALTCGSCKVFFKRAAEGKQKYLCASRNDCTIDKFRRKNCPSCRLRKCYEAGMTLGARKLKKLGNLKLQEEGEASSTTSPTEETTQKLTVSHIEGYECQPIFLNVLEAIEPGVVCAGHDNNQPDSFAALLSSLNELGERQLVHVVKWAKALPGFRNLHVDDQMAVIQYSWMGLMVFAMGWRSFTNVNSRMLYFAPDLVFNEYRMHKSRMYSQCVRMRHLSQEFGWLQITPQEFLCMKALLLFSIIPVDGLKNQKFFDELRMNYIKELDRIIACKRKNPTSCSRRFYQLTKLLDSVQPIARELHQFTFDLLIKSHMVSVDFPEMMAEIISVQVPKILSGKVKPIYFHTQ", "UniProt P37231": "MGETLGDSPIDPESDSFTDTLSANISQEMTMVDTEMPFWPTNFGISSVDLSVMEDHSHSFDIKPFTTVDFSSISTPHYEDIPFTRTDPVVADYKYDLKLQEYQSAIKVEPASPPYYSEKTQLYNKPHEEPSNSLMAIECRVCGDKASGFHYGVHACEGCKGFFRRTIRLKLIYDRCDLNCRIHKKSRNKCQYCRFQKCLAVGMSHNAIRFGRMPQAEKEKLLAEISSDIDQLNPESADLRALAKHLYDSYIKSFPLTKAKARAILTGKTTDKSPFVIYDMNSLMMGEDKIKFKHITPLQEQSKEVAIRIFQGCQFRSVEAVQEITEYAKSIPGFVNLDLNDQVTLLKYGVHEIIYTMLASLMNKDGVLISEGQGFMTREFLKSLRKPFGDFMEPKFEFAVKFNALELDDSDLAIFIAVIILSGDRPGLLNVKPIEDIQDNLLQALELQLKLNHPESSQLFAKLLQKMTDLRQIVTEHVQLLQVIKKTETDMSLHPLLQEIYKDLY", "UniProt Q9PVE4": "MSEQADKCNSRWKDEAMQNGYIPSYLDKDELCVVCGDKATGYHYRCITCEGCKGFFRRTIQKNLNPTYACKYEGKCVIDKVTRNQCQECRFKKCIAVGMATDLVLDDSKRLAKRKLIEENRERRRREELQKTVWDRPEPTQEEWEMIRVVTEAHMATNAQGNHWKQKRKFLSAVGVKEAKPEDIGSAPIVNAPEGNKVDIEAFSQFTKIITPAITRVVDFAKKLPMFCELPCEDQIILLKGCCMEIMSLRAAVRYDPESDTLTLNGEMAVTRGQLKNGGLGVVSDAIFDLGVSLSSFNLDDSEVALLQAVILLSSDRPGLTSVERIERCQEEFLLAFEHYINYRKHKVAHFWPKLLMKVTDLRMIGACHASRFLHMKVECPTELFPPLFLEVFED", "UniProt P03372, whole entry, looked up": "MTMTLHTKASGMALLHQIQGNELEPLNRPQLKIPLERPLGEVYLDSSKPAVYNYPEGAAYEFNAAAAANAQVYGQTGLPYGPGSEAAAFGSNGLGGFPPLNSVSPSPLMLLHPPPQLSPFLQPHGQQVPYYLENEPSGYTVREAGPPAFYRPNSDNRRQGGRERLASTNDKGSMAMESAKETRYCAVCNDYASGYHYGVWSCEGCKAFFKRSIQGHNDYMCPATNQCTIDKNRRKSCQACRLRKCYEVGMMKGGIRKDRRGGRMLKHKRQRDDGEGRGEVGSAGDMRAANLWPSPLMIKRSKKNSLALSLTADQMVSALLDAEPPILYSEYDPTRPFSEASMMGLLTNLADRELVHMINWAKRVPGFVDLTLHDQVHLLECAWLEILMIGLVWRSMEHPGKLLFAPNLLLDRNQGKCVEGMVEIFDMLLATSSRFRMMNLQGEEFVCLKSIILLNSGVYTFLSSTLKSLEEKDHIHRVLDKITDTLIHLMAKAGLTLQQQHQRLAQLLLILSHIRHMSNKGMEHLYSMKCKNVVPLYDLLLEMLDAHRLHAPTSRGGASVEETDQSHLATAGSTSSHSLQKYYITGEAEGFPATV", "UniProt P33261, whole entry, looked up": "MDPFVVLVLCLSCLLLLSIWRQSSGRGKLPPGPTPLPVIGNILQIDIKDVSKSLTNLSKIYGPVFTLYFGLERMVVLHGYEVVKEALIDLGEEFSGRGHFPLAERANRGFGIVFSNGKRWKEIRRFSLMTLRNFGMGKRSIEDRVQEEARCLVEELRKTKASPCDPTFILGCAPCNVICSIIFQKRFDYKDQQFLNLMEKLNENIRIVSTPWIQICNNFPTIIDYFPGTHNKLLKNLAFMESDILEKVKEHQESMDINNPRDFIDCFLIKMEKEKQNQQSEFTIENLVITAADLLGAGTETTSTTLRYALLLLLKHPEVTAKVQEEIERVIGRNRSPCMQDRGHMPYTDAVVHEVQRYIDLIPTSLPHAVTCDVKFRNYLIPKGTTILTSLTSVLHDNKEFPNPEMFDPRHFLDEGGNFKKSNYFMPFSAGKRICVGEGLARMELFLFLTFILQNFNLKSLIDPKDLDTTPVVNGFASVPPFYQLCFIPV", "UniProt P31751": "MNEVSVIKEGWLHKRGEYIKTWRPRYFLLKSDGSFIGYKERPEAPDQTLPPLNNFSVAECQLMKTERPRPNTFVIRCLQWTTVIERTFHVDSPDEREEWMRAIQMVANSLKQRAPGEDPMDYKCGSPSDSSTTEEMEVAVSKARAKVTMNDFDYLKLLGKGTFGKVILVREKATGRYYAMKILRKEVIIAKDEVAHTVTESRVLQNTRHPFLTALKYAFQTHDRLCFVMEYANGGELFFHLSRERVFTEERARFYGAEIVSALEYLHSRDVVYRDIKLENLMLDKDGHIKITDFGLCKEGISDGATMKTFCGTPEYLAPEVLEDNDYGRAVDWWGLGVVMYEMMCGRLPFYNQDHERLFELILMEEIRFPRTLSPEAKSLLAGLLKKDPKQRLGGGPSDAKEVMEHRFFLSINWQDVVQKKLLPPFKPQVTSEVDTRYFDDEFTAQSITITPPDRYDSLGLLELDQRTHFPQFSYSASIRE", "UniProt Q9UNQ0": "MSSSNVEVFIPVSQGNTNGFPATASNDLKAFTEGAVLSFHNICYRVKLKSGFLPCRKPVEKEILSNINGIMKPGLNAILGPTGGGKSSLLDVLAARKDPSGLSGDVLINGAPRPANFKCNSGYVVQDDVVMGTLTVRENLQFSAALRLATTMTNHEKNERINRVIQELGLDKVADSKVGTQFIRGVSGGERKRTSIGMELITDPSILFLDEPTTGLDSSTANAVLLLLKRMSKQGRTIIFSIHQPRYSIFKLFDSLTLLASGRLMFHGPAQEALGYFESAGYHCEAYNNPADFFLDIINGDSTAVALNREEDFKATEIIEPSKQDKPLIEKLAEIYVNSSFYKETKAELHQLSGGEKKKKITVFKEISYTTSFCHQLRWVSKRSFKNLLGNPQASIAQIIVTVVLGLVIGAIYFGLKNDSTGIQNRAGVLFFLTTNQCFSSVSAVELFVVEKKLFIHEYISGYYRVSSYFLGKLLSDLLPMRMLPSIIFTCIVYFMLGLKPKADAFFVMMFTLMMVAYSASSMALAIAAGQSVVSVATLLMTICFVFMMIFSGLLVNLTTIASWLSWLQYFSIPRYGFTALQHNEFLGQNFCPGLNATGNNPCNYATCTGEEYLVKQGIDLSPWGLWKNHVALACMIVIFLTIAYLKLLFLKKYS"}, "source": "PubChem BioAssay (EPA / NIEHS)", "key": {"[1]": {"molecular_target": "human Serotonin, 5-Hydroxytryptamine Receptor 6 (5HT6), HTR6 (gene 3362) (UniProt P50406)", "assay": "NVS_GPCR_h5HT6: NovaScreen (NVS) G Protein-Coupled Receptor Assay for human Serotonin, 5-Hydroxytryptamine Receptor 6 (5HT6) (AID 2283253)", "summary_of_the_method": "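Radioligand binding to 5HT6 in HEK293-derived membranes, cell-free, 1 h after dosing; bound ligand measured by filter-based scintillation counting. Primary screen in duplicate at 25 uM; actives retested in concentration series.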"}, "[2]": {"molecular_target": "human Neurotensin Receptor (NTS), NTSR1 (gene 4923) (UniProt P30989)", "assay": "NVS_GPCR_hNTS: NovaScreen (NVS) G Protein-Coupled Receptor Assay for human Neurotensin Receptor (NTS) (AID 2283279)", "summary_of_the_method": "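Radioligand displacement on human NTSR1 protein from CHO cells, cell-free, 1 h, filter-based scintillation counting. Primary screen at 25 uM in duplicate; hits rerun in concentration-response up to 50 uM.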"}, "[3]": {"molecular_target": "human Rho Associated Coiled-coil Containing Protein Kinase 1 (ROCK1), ROCK1 (gene 6093) (UniProt Q13464)", "assay": "NVS_ENZ_hROCK1: NovaScreen (NVS) Enzymatic Assay for human Rho Associated Coiled-coil Containing Protein Kinase 1 (ROCK1) (AID 2283214)", "summary_of_the_method": "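Cell-free recombinant human ROCK1 activity assay; fluorescent substrate and product separated by electrophoretic mobility shift, read 1 h after dosing. Screened in duplicate at 25 uM; loss of signal versus DMSO baseline scored as inhibition.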"}, "[4]": {"molecular_target": "rat Constitutive Nitric Oxide Synthase (CNOS), Nos1 (gene 24598) (UniProt P29476)", "assay": "NVS_ENZ_rCNOS: NovaScreen (NVS) Enzymatic Assay for rat Constitutive Nitric Oxide Synthase (CNOS) (AID 2283236)", "summary_of_the_method": "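Enzyme activity in rat brain membrane preparation, read 1 h after dosing by filter-based radiometric scintillation counting. Primary screen in duplicate at 25 uM; actives (e.g., ≥30% inhibition) then run in concentration-response up to 50 uM.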"}, "[5]": {"molecular_target": "human Androgen Receptor (AR), AR (gene 367) (UniProt P10275)", "assay": "ATG_hAR_XSP2: Attagene TRANS-FACTORIAL Multi-Species (XSP2) HepG2 Assay for human Androgen Receptor (AR) (AID 2283820)", "summary_of_the_method": "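HepG2 cells transiently transfected with GAL4-UAS reporter units driven by chimeric NR-Gal4 proteins, stimulated with 3 nM 6-alpha-fluorotestosterone plus 1.5 nM norgestrel. Reporter mRNA quantified 24 h after dosing by RT-PCR and capillary electrophoresis; gain-of-signal versus DMSO.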"}, "[6]": {"molecular_target": "Peroxisome proliferator-activated receptor gamma (Homo sapiens) (UniProt P37231)", "assay": "ATG_hPPARg_XSP2: Attagene TRANS-FACTORIAL Multi-Species (XSP2) HepG2 Assay for human Peroxisome Proliferator-activated Receptor gamma (PPARg) (AID 2283829);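 note: actives raise reporter mRNA above DMSO so AC50 reflects PPARg activation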", "summary_of_the_method": "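Reporter transcripts were measured by RT-PCR, fluorescent labeling, HpaI digestion and capillary electrophoresis, relative to DMSO, 24 h post-dosing. Transiently transfected HepG2 expressed NR-Gal4 chimeras regulating GAL4-UAS reporters; medium contained 3 nM 6-alpha-fluorotestosterone plus 1.5 nM norgestrel.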"}, "[7]": {"assay": "ATG_M_61_XSP2: Attagene TRANS-FACTORIAL Multi-Species (XSP2) HepG2 Assay for M61 Transcription Factor (Internal Marker) (AID 2283835; active = hit-call score of the fitted dose curve at least 0.9, where 1 is the maximum; inactive = score below 0.9;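 note: active means a rise in signal above the DMSO baseline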)", "summary_of_the_method": "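First, HepG2 cells are transfected with reporter units under GAL4-UAS control. Next, chemicals are applied for 24 h. Then total RNA is reverse-transcribed, amplified, fluorescently labelled and sized by capillary electrophoresis, with gain of signal scored against DMSO.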"}, "[8]": {"molecular_target": "zebrafish Thyroid Hormone Receptor beta (TRb), thrb (gene 30607) (UniProt Q9PVE4)", "assay": "ATG_zfTRb_XSP2: Attagene TRANS-FACTORIAL Multi-Species (XSP1) HepG2 Assay for zebrafish Thyroid Hormone Receptor beta (TRb) (AID 2283836);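 note: potency for induction of reporter signal above DMSO so agonist direction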", "summary_of_the_method": "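Human liver HepG2, transient MRTU transfection (NR-Gal4 chimeras, GAL4-UAS reporters); 24 h compound exposure; total RNA → oligo(dT) RT → PCR → 6-FAM label → HpaI cut → CE fluorescence. DMSO = negative control/baseline.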"}, "[9]": {"assay": "ATG_XTT_Cytotoxicity_XSP2: Cytotoxicity Assessment in the Attagene TRANS-FACTORIAL Multi-Species (XSP2) HepG2 Assay (AID 2283837)", "summary_of_the_method": "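HepG2 cells, transiently transfected with multiple reporter constructs, exposed to chemical for 24 h. Cell number assessed with XTT fluorescence read-out; loss of signal fitted relative to DMSO.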"}, "[10]": {"assay": "CCTE_Deisenroth_AIME_96WELL_CTox_Active: Cytotoxicity Assessment (CTOX) in CCTE's 96-well Estrogen Receptor Transactivation Assay with AIME metabolic competence (metabolism positive), Deisenroth Lab (AID 2284028)", "summary_of_the_method": "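Chemicals (0.002–200 uM) were first incubated 2 h with alginate-immobilized phenobarbital/beta-naphthoflavone-induced male rat liver S9; conditioned medium then went onto VM7Luc4E2 cells for 24 h, with viability read by protease-substrate fluorescence, fitted bidirectionally.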"}, "[11]": {"assay": "CCTE_Deisenroth_AIME_96WELL_CTox_Inactive: Cytotoxicity Assessment (CTOX) in CCTE's 96-well Estrogen Receptor Transactivation Assay without AIME metabolic competence (metabolism negative), Deisenroth Lab (AID 2284029)", "summary_of_the_method": "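Chemicals (0.002 - 200 uM, 10 points) incubated 2 h with alginate-water microspheres (no S9), then medium moved onto VM7Luc4E2 cells for 24 h. Viability by protease-substrate cleavage to fluorescent probe; bidirectional fitting.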"}, "[12]": {"assay": "CCTE_Shafer_MEA_dev_bursting_electrodes_number: CCTE's Neural Network Formation Assay for Number of Bursting Electrodes, Shafer Lab (AID 2284043)", "summary_of_the_method": "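Read-out is the per-well number of electrodes bursting at least once every 2 minutes, recorded on days 5, 7, 9 and 12 and collapsed by trapezoidal area under the curve. Cultures were primary rat cortical neurons on MEA plates, treated continuously from plating.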"}, "[13]": {"assay": "TAMU_HCS_1.5hr_SingleDonor1434_Cytotoxicity: Cytotoxicity Assessment using High-content Screening (HCS) Fluorescent Imaging for the Texas A&M University (TAMU) 1.5-hr Human Induced Pluripotent Stem Cell (iPSC)-derived Cardiotoxicity Assay (AID 2284234)", "summary_of_the_method": "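Human iPSC-derived cardiomyocytes dosed at 0.2, 1, 10, 100 uM final (0.5% DMSO) for 90 min at 37 C. Hoechst 33342-stained nuclei counted by 10x high-content imaging; POD is EC10, a 10% drop in total cell count versus DMSO.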"}, "[14]": {"molecular_target": "Nuclear receptor subfamily 1 group I member 2 (Mus musculus) (UniProt O54915)", "assay": "ATG_mPXR_XSP1: Attagene TRANS-FACTORIAL Multi-Species (XSP1) HepG2 Assay for mouse Pregnane X Receptor (PXR) (AID 2283803)", "summary_of_the_method": "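Transiently transfected HepG2 cells expressing a receptor-Gal4 chimera drive a GAL4-UAS reporter; 3 nM 6-alpha-fluorotestosterone included. Reporter mRNA read 24 h post-dose by RT-PCR and capillary electrophoresis; gain of signal relative to DMSO.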"}, "[15]": {"molecular_target": "Estrogen receptor (Homo sapiens) (UniProt P03372)", "assay": "ATG_hERa_XSP2: Attagene TRANS-FACTORIAL Multi-Species (XSP2) HepG2 Assay for human Estrogen Receptor (ERa) (AID 2283827)", "summary_of_the_method": "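HepG2 cells transiently transfected with multiplexed GAL4-UAS reporters driven by chimeric receptor-Gal4 proteins, dosed 24 h with 3 nM 6-alpha-fluorotestosterone and 1.5 nM norgestrel present. Reporter mRNA by RT-PCR and capillary electrophoresis; gain-of-signal fit versus DMSO.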"}, "[16]": {"assay": "ATG_Hpa5_TRANS: Attagene TRANS-FACTORIAL HepG2 Assay for human GAL4-Hpa5 Hepatocyte Transcription Factor Basal Promoter (AID 2282975)", "details": "HepG2 Attagene GAL4-Hpa5 transcription reporter", "summary_of_the_method": "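Basal-promoter GAL4 background control within the HepG2 trans-factorial panel of transiently transfected reporter units. Reporter mRNA is measured 24 h after dosing by RT-PCR and capillary electrophoresis, fitted for gain of signal versus DMSO.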"}, "[17]": {"molecular_target": "Cytochrome P450 2C19 (Homo sapiens) (UniProt P33261)", "assay": "NVS_ADME_hCYP2C19: NovaScreen (NVS) CYP450-related Enzyme Activity (ADME) Assay for human CYP2C19 (AID 2283113)", "summary_of_the_method": "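Compounds first screened in duplicate at 10 uM, then confirmed in concentration series. Insect-cell-expressed human CYP2C19 turned over a fluorogenic substrate, and fluorescence was read after 1 h. Inhibition taken as signal loss relative to acetonitrile.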"}, "[18]": {"molecular_target": "human AKT serine/threonine Kinase 2 (AKT2), AKT2 (gene 208) (UniProt P31751)", "assay": "NVS_ENZ_hAKT2: NovaScreen (NVS) Enzymatic Assay for human AKT serine/threonine Kinase 2 (AKT2) (AID 2283141)", "summary_of_the_method": "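Cell-free fluorescence/electrophoretic mobility shift readout of recombinant human AKT2 activity, 1 h after chemical dosing. Duplicate primary screen at 25 uM, then singleton concentration-response up to 50 uM; loss of signal versus DMSO baseline.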"}, "[19]": {"read-out": "Broad substrate specificity ATP-binding cassette transporter ABCG2 (Homo sapiens) (UniProt Q9UNQ0)", "assay": "CLD_ABCG2_6hr: CellzDirect (CLD) Gene Expression Assay for ABC Transporter (ABCG2) at 6 hours (AID 2283660)", "summary_of_the_method": "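Primary human hepatocytes dosed daily with chemicals at multiple concentrations (0.2% DMSO vehicle), harvested 6 h after dosing. ABCG2 mRNA induction read by quantitative nuclease protection assay (qNPA) chemiluminescence; gain of signal fitted against DMSO baseline.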"}, "[20]": {"read-out": "xenobiotic metabolism (CYP2C9), CYP2C9 (gene 1559)", "assay": "CLD_CYP2C9_6hr: CellzDirect (CLD) Gene Expression Assay for xenobiotic metabolism (CYP2C9) at 6 hours (AID 2283664)", "summary_of_the_method": "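Primary human hepatocytes dosed daily with test chemicals at multiple concentrations; harvested at 6 h. CYP2C9 mRNA induction measured by qNPA chemiluminescence. Gain of signal fitted against 0.2% DMSO vehicle; cytotoxicity annotated from phase-contrast morphology.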"}}, "note": "Several values for one entry are separate records, joined by “and”; a condition that tells them apart may be missing. Equal values may be shown once. Inconclusive means that the source gave no clear call. Such entries were picked first, then a sample of the others. For some assays here: A potency beside an inconclusive call is a rough fit, not a confirmed value. Activity calls are given as the source filed them. Rule for the calls, unless noted: active = hit-call score of the fitted dose curve at least 0.9, where 1 is the maximum; inconclusive = response in the unintended direction; inactive = score below 0.9.", "data": [{"smiles": "CCCCCCCCN(C)C", "values": [{"measurement": "outcome", "setting": "[1]", "result": "inactive"}, {"measurement": "AC50", "setting": "[2]", "result": "active: 16.7 µM"}]}, {"smiles": "c1ccc2c(c1)ccc1ccccc12", "values": [{"measurement": "outcome", "setting": "[3]", "result": "inactive"}, {"measurement": "AC50", "setting": "[4]", "result": "active: 1.16 µM"}, {"measurement": "AC50", "setting": "[5]", "result": "inconclusive: 6.62 µM and inconclusive: 5.64 µM"}, {"measurement": "AC50", "setting": "[6]", "result": "inconclusive: 33.4 µM"}, {"measurement": "outcome", "setting": "[7]", "result": "inactive"}, {"measurement": "AC50", "setting": "[8]", "result": "inconclusive: 100 µM"}, {"measurement": "outcome", "setting": "[9]", "result": "inactive"}, {"measurement": "AC50", "setting": "[10]", "result": "inconclusive: 100 µM"}, {"measurement": "outcome", "setting": "[11]", "result": "inactive"}, {"measurement": "AC50", "setting": "[12]", "result": "inconclusive: 10 µM"}, {"measurement": "AC50", "setting": "[13]", "result": "inconclusive: 9.92 µM"}]}, {"smiles": "CN(CCOc1ccc(CC2SC(=O)NC2=O)cc1)c1ccccn1", "note": "(stereo not given)", "values": [{"measurement": "AC50", "setting": "[14]", "result": "inconclusive: 0.137 µM"}, {"measurement": "AC50", "setting": "[15]", "result": "inconclusive: 0.1 µM"}]}, {"smiles": "COc1c(Cl)ccc(Cl)c1C(=O)O", "values": [{"measurement": "AC50", "setting": "[16]", "result": "inconclusive: 37.7 µM"}, {"measurement": "AC50", "setting": "[17]", "result": "inconclusive: 1.98 µM"}, {"measurement": "AC50", "setting": "[18]", "result": "inconclusive: 25 µM"}, {"measurement": "AC50", "setting": "[19]", "result": "inconclusive: 0.0262 µM"}, {"measurement": "AC50", "setting": "[20]", "result": "inconclusive: 20 µM"}]}]}
